{
  "source": "patent US10391168B1",
  "about": "“Anti-CD70 combination therapy” (University of Bern, priority 2014, dated 2019)",
  "test_system": "SD-1 cells",
  "assay": "Chou-Talalay drug combination study, growth inhibition of SD-1 cells (cell numbers after 72 h)",
  "details": "CompuSyn median-effect analysis",
  "data": [
    {"smiles": "Cc1ccc(NC(=O)c2ccc(CN3CCN(C)CC3)cc2)cc1Nc1nccc(-c2cccnc2)n1", "note": "[imatinib]", "values": [
      {"measurement": "m (slope), single treatment", "value": 1.183}
    ]}
  ]
}
